Assay results: PMC6511871
These are yes or no findings as the source states them, for the method shown. In cells and extracts the contact can be indirect. Some binding calls cover weakened binding; strength is not graded here.

Chains of the proteins cited; added tags and fusions are not shown.
UniProt Q9H1D9: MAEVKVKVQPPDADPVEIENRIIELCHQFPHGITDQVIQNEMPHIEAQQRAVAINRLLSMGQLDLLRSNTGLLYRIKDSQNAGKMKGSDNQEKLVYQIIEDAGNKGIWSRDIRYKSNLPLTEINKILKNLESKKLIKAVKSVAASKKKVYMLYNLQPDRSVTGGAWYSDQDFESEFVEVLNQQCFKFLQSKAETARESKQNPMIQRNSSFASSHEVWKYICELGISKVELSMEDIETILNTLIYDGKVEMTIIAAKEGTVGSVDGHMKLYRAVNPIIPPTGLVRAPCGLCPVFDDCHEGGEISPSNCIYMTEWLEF

Target: HaloTag-POLR3F (human) (UniProt Q9H1D9)
Assay: pull-down; HaloTag fusion covalently captured from 293A cell lysate on HaloLink resin (30 min, room temperature), five washes with PD Washing Buffer, non-covalently associated proteins eluted by boiling in Laemmli sample buffer, western blot for POLR3A

- binding: binds
B1: RNA polymerase III catalytic subunit (POLR3A) (protein, UniProt O14802 1-1390)
chain: MVKEQFRETDVAKKISHICFGMKSPEEMRQQAHIQVVSKNLYSQDNQHAPLLYGVLDHRMGTSEKDRPCETCGKNLADCLGHYGYIDLELPCFHVGYFRAVIGILQMICKTCCHIMLSQEEKKQFLDYLKRPGLTYLQKRGLKKKISDKCRKKNICHHCGAFNGTVKKCGLLKIIHEKYKTNKKVVDPIVSNFLQSFETAIEHNKEVEPLLGRAQENLNPLVVLNLFKRIPAEDVPLLLMNPEAGKPSDLILTRLLVPPLCIRPSVVSDLKSGTNEDDLTMKLTEIIFLNDVIKKHRISGAKTQMIMEDWDFLQLQCALYINSELSGIPLNMAPKKWTRGFVQRLKGKQGRFRGNLSGKRVDFSGRTVISPDPNLRIDEVAVPVHVAKILTFPEKVNKANINFLRKLVQNGPEVHPGANFIQQRHTQMKRFLKYGNREKMAQELKYGDIVERHLIDGDVVLFNRQPSLHKLSIMAHLARVKPHRTFRFNECVCTPYNADFDGDEMNLHLPQTEEAKAEALVLMGTKANLVTPRNGEPLIAAIQDFLTGAYLLTLKDTFFDRAKACQIIASILVGKDEKIKVRLPPPTILKPVTLWTGKQIFSVILRPSDDNPVRANLRTKGKQYCGKGEDLCANDSYVTIQNSELMSGSMDKGTLGSGSKNNIFYILLRDWGQNEAADAMSRLARLAPVYLSNRGFSIGIGDVTPGQGLLKAKYELLNAGYKKCDEYIEALNTGKLQQQPGCTAEETLEALILKELSVIRDHAGSACLRELDKSNSPLTMALCGSKGSFINISQMIACVGQQAISGSRVPDGFENRSLPHFEKHSKLPAAKGFVANSFYSGLTPTEFFFHTMAGREGLVDTAVKTAETGYMQRRLVKSLEDLCSQYDLTVRSSTGDIIQFIYGGDGLDPAAMEGKDEPLEFKRVLDNIKAVFPCPSEPALSKNELILTTESIMKKSEFLCCQDSFLQEIKKFIKGVSEKIKKTRDKYGINDNGTTEPRVLYQLDRITPTQVEKFLETCRDKYMRAQMEPGSAVGALCAQSIGEPGTQMTLKTFHFAGVASMNITLGVPRIKEIINASKAISTPIITAQLDKDDDADYARLVKGRIEKTLLGEISEYIEEVFLPDDCFILVKLSLERIRLLRLEVNAETVRYSICTSKLRVKPGDVAVHGEAVVCVTPRENSKSSMYYVLQFLKEDLPKVVVQGIPEVSRAVIHIDEQSGKEKYKLLVEGDNLRAVMATHGVKGTRTTSNNTYEVEKTLGIEAARTTIINEIQYTMVNHGMSIDRRHVMLLSDLMTYKGEVLGITRFGLAKMKESVLMLASFEKTADHLFDAAYFGQKDSVCGVSECIIMGIPMNIGTGLFKLLHKADRDPNPPKRPLIFDTNEFHIPLVT
